Results reported in patent publication US20090181950A1, “Histamine Receptor Antagonists Comprising an Azepin Core” (GLAXO GROUP LIMITED, priority 2006, published 2009).
Where a name gives a salt, the structure may show the parent alone. Some results were stated once for a whole list of compounds, not compound by compound.

Chains of the proteins cited; added tags and fusions are not shown.
UniProt P35367, whole entry: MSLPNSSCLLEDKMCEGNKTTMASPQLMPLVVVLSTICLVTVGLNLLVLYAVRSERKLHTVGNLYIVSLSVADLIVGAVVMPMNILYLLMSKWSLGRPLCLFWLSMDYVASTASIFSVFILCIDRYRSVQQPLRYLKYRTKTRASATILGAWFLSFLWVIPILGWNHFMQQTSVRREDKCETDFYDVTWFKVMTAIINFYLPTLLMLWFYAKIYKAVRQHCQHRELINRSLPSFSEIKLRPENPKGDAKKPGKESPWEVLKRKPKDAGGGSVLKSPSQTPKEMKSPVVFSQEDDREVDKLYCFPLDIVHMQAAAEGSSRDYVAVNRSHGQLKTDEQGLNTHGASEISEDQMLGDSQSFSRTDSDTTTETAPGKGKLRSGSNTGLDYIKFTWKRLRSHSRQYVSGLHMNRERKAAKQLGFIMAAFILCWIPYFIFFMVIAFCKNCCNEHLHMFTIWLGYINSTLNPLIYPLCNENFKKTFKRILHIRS
UniProt Q9Y5N1, whole entry, species assumed: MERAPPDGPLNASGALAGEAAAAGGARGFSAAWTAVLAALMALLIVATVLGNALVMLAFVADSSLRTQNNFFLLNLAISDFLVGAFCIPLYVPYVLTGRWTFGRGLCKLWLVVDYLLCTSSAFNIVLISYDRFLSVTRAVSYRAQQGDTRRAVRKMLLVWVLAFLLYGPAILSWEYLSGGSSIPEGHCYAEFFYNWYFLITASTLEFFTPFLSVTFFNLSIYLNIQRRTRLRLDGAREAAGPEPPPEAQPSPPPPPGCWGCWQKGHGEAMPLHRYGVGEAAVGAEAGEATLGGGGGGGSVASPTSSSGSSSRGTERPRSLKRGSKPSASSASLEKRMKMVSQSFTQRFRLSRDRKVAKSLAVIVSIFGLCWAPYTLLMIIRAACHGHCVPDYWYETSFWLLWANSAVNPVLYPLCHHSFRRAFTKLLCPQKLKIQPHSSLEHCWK

Assays:
human H1 receptor = molecular target: T1, human H1 receptor (Homo sapiens, UniProt P35367); experiment: Histamine H1 functional antagonist assay (FLIPR): functional pKi; assay type: cell-based; conditions: CHO cells expressing human H1 receptor; histamine at EC80; receptor not named in the result sentence
T1 construct: expressed in transfected cells

histamine H3 receptor = molecular target: T2, histamine H3 receptor (Homo sapiens, UniProt Q9Y5N1); experiment: Histamine H3 functional antagonist assay ([35S]-GTPγS SPA, CHO membranes); assay type: biochemical; conditions: membranes of CHO K1 cells expressing H3; histamine at EC80
T2 construct: expressed in transfected cells; host or cells: CHO K1 cells carrying pSwitch, transfected with pGeneH3 (GeneSwitch, mifepristone-induced), clone 3H3; membranes

Which “average pKi (pKb)” value (human H1 receptor) does the source give for O=C(O)CCc1ccc2cc(Cc3ccccc3)cc(N3CCN(CCc4ccc(OCCCN5CCCCCC5)cc4)CC3)c2n1 [Example 1, 3-[8-{4-[2-(4-{[3-(Hexahydro-1H-azepin-1-yl)propyl]oxy}phenyl)ethyl]-1-piperazinyl}-6-(phenylmethyl)-2-quinolinyl]propanoic Acid, Formate Salt] here?
Its value is “greater than 7.0”.

And the “average pKi (pKb) at H3” value (histamine H3 receptor)?
Its value is “greater than 8.0”.

Which “average pKi (pKb)” value (human H1 receptor) does the source give for CCc1cc(N2CCN(CCc3ccc(OCCCN4CCCCCC4)cc3)CC2)c2nc(CCC(=O)O)ccc2c1 [Example 2, 3-(6-Ethyl-8-{4-[2-(4-{[3-(hexahydro-1H-azepin-1-yl)propyl]oxy}phenyl)ethyl]-1-piperazinyl}-2-quinolinyl)propanoic Acid, Formate Salt] here?
Its value is “greater than 7.0”.

What about the “average pKi (pKb) at H3” value (histamine H3 receptor) of the same compound?
Its value is “greater than 8.0”.

Which “average pKi (pKb)” value (human H1 receptor) does the source give for O=C(O)CCc1ccc2cccc(N3CCN(CCc4ccc(OCCCN5CCCCCC5)cc4)CC3)c2n1 [Example 3, 3-(8-{4-[2-(4-{[3-(Hexahydro-1H-azepin-1-yl)propyl]oxy}phenyl)ethyl]-1-piperazinyl}-2-quinolinyl)propanoic Acid, Formic Acid (1:2)] here?
The value was “greater than 7.0”.

Which “average pKi (pKb)” value (human H1 receptor) does the source give for O=C(O)/C=C/c1ccc2cccc(N3CCN(CCc4ccc(OCCCN5CCCCCC5)cc4)CC3)c2n1 [Example 4, (2E)-3-(8-{4-[2-(4-{[3-(Hexahydro-1H-azepin-1-yl)propyl]oxy}phenyl)ethyl]-1-piperazinyl}-2-quinolinyl)-2-propenoic Acid-Formic Acid (1:1)] here?
Its value is “greater than 7.0”.

How did the “average pKi (pKb)” value (human H1 receptor) turn out when O=C(O)CCc1cnc2c(N3CCN(CCc4ccc(OCCCN5CCCCCC5)cc4)CC3)cccc2c1 [Example 5, 3-(8-{4-[2-(4-{[3-(hexahydro-1H-azepin-1-yl)propyl]oxy}phenyl)ethyl]-1-piperazinyl}-3-quinolinyl)propanoic Acid, Formic Acid Salt] was run?
The value was “greater than 7.0”.

What about the “average pKi (pKb) at H3” value (histamine H3 receptor) of the same compound?
Its value is “greater than 8.0”.

How did the “average pKi (pKb)” value (human H1 receptor) turn out when CCCCc1cc(N2CCN(CCc3ccc(OCCCN4CCCCCC4)cc3)CC2)c2nc(CCC(=O)O)ccc2c1 [Example 6, 3-(6-Butyl-8-{4-[2-(4-{[3-(hexahydro-1H-azepin-1-yl)propyl]oxy}phenyl)ethyl]-1-piperazinyl}-2-quinolinyl)propanoic Acid, Formate Salt] was run?
The value was “greater than 7.0”.

And the “average pKi (pKb) at H3” value (histamine H3 receptor)?
Its value is “greater than 8.0”.
